According to article doi:10.1101/2021.01.14.426638:
These are yes or no findings as the source states them, for the method shown. Binding seen in cells or lysates may run through a third protein. A yes stands for co-enrichment or nearness to the bait. Other partners may have been found. Tags and fused reporters may be left off the sequences shown.

Protein sequences, listed by entry. Tags and fused reporters are not part of them.
UniProt Q61879: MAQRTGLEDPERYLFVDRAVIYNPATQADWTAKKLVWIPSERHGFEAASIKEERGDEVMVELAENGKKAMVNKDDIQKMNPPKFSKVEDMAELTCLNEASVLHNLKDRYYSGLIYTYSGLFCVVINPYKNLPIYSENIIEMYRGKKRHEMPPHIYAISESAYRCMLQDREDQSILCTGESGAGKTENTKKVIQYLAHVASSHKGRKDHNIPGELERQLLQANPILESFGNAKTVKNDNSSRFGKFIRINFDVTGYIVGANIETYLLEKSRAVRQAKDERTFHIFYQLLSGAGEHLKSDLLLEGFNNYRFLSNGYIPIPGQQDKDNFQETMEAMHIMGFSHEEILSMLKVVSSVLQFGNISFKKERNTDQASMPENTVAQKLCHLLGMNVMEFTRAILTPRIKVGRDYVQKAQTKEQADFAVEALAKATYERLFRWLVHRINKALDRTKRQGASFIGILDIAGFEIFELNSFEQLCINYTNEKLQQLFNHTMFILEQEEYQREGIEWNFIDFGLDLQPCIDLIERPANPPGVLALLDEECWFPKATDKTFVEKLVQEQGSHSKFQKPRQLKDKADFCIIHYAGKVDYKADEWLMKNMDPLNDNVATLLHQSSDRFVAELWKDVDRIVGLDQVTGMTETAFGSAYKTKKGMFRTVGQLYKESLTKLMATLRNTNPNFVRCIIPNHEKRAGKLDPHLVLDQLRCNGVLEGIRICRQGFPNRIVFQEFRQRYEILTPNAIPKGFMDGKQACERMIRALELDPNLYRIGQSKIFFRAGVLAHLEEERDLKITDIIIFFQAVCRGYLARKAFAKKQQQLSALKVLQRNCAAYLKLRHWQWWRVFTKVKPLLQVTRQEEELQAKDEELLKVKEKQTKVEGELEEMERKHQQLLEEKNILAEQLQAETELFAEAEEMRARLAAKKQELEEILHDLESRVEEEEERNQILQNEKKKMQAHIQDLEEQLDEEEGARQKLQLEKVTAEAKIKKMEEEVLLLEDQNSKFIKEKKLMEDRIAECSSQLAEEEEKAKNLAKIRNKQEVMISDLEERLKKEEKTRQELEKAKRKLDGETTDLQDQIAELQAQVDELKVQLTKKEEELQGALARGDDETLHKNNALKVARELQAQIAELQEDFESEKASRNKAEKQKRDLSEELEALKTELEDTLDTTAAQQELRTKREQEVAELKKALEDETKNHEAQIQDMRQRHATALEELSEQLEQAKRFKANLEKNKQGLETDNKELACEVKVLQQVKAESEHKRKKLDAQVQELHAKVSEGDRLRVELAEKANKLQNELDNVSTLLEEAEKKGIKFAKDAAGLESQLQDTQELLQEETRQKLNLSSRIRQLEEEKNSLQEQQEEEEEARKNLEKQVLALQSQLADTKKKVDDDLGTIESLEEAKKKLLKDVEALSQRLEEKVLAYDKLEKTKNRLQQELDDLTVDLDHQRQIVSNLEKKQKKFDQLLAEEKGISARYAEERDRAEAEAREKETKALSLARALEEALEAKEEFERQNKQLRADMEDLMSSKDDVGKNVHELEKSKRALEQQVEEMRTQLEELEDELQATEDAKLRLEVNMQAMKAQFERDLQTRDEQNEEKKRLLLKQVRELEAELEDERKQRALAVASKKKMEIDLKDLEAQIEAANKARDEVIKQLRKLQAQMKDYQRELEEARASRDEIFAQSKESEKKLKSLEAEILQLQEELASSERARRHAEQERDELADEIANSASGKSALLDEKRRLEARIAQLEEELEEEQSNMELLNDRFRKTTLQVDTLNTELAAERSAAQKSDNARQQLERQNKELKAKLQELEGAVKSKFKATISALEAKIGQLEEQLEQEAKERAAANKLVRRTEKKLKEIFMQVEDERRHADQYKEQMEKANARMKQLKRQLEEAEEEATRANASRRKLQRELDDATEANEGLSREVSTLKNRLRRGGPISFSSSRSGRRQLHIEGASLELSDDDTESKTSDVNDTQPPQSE
UniProt Q99NH2: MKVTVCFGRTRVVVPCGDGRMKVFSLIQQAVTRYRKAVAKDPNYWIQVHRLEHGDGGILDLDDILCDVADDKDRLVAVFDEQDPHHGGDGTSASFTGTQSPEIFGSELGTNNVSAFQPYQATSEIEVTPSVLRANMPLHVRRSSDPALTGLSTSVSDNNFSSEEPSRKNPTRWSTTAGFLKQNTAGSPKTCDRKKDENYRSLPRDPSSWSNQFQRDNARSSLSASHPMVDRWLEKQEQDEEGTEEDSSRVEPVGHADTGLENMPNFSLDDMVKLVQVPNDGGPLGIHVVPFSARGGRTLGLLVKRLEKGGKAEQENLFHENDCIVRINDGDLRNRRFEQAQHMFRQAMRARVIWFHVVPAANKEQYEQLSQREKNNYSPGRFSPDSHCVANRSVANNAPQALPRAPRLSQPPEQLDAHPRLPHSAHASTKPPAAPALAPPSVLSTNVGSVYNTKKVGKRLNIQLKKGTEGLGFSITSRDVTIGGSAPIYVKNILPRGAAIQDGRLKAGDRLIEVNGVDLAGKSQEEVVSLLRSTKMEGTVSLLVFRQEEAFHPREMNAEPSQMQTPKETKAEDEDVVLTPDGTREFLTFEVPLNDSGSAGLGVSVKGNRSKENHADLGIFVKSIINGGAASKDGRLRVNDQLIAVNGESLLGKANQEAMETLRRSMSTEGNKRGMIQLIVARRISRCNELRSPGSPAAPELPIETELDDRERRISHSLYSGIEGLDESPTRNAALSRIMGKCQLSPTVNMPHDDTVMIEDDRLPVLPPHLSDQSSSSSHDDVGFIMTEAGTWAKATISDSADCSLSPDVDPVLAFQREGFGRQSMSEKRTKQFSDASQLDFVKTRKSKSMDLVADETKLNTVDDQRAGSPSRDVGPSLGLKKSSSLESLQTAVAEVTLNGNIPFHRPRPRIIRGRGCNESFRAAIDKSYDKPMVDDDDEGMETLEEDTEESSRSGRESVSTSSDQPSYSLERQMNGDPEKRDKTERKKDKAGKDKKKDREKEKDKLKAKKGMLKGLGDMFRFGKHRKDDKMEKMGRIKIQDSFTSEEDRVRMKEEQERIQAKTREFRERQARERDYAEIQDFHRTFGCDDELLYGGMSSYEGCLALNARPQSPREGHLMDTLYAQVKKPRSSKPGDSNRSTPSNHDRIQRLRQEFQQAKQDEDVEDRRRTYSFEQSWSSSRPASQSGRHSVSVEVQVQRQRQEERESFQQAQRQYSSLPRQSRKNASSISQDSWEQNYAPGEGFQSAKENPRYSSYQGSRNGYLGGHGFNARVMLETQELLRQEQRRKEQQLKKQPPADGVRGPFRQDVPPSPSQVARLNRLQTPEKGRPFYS

Target: T1, mouse Amot p130 fused to BirA* (BirA R118G), BioID construct (mouse) (UniProt Q8VHG2)
T1 sequence: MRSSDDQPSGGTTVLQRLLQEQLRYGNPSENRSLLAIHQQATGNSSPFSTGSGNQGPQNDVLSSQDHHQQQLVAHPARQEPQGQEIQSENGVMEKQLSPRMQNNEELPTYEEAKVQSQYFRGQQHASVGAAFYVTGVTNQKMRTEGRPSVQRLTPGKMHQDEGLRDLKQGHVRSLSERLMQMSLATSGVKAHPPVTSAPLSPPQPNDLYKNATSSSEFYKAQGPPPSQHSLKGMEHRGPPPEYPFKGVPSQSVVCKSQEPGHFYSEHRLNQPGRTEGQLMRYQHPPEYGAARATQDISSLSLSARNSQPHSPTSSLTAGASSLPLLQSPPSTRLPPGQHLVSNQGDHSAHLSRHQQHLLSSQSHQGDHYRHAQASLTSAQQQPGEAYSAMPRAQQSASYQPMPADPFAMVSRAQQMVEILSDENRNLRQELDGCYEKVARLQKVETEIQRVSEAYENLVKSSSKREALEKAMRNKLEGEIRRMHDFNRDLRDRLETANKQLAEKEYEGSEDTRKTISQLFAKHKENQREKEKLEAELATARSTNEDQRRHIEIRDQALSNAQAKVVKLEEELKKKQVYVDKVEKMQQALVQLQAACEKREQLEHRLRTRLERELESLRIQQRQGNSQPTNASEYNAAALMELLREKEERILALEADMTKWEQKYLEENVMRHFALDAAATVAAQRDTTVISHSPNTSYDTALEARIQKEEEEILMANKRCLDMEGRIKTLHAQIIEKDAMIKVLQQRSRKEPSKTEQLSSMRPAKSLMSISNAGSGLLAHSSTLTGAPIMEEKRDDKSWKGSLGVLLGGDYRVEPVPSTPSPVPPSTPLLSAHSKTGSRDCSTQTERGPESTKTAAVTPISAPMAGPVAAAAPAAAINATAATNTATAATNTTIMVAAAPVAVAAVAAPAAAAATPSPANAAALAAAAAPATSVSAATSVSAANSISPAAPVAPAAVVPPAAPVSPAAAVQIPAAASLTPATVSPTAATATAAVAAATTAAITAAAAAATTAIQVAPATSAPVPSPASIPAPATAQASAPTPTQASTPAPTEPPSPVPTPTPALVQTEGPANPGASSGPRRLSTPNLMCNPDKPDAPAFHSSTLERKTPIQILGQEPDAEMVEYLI
Experiment: proximity labelling

Molecule	binding
myosin 10, endogenous in MS1 cells (from UniProt Q61879 1-1976)	binds
Pard3, endogenous in MS1 cells (from UniProt Q99NH2 1-1333)	binds
zyxin, endogenous in MS1 cells (protein, UniProt Q62523 1-564) MAAPRPPPAISVSVSAPAFYAPQKKFAPVVAPKPKVNPFRPGDSEPPVAAGAQRAQMGRVGEIPPPPPEDFPLPPPPLIGEGDDSEGALGGAFPPPPPPMIEEPFPPAPLEEDIFPSPPPPLEEEGGPEAPTQLPPQPREKVCSIDLEIDSLSSLLDDMTKNDPFKARVSSGYVPPPVATPFVPKPSTKPAPGGTAPLPPWKTPSSSQPPPQPQAKPQVQLHVQPQAKPHVQPQPVSSANTQPRGPLSQAPTPAPKFAPVAPKFTPVVSKFSPGAPSGPGPQPNQKMVPPDAPSSVSTGSPQPPSFTYAQQKEKPLVQEKQHPQPPPAQNQNQVRSPGGPGPLTLKEVEELEQLTQQLMQDMEHPQRQSVAVNESCGKCNQPLARAQPAVRALGQLFHITCFTCHQCQQQLQGQQFYSLEGAPYCEGCYTDTLEKCNTCGQPITDRMLRATGKAYHPQCFTCVVCACPLEGTSFIVDQANQPHCVPDYHKQYAPRCSVCSEPIMPEPGRDETVRVVALDKNFHMKCYKCEDCGKPLSIEADDNGCFPLDGHVLCRKCHSARAQT	binds
kank2, endogenous in MS1 cells (protein, UniProt Q8BX02 1-843) MAQVLHVPAPFPGTPGQASPAAFPSKEPDPPYSVETPYGYRLDLDFLKYVDDIEKGHTLRRVAVQRRPRLGSLPRGPGSWWTSTESLCSDASGDSRHSAYSYCGRGFYPQYGALETRIGSNPRVERTLLDARRRLEDQAAAPSSGGLGSLTPSAAGSTSSLAGVGLLPPTPRSSGLSTPVAPSAGHLAHVREQMAGALRKLRQLEEQVKLIPVLQVKLSVLQEEKRQLTVQLKSQKFLGHPSGTRSRSELCLDLPEAPDDPAALETRSVGTWVRERDLGIPDGEAALVAKVAVLETQLKKALQELRAAQTQQVDLQPQAWPPPDTQVRVDTVRVVEGPREVEVAASTAAGALAQRAQSLEPYGTGLKALTTSGGPENTLVFRSHEVVETMCPLPTATTGNVHTAKKISITERSCTGAPRMTEPSSVNPRPAAASVVQPENPVPAAQDTTDKKPTRPAAASQDSQAADGAGRASLATKRKEDPADPEVNQRNLQFVGVNGGYESPSEDSSTAENSEHESTENEGPEPPARVLSPAECPQLRPPGAAVATTSLEGPQLSQESQRVPAPEVASGPDPEEEIRMDLSPDLISACLALEKYLENPNALTERELKVAYTTVLQEWLRLACRSDAHPELVRRHLVTFRAMSARLLDYVVNIADSNGNTALHYSVSHANFPVVRQLLDSGVCHVDKLNRAGYSPIMLTALATLKTQDDIETILQLFRLGNVNAKASQAGQTALMLAVSHGRVDVVRALLACEADVNIQDEDGSTALMCACEHGHKEITGLLLAVPSCDISLTDRDGSTALMVALDAGQSEIASMLYSRMNIKCSFAPMSDYESPASSSAEE	binds
catenin delta-1, endogenous in MS1 cells (protein, UniProt P30999 1-938) MDDSEVESTASILASVKEQEAQFEKLTRALEEERRHVSAQLERVRVSPQDANSLMANGTLTRRHQNGRFVGDADLERQKFSDLKLNGPQDHNHLLYSTIPRMQEPGQIVETYTEEDPEGAMSVVSVETTDDGTTRRTETTVKKVVKTMTTRTVQPVPMGPDGLPVDASAVSNNYIQTLGRDFRKNGNGGPGPYVGQAGTATLPRNFHYPPDGYGRHYEDGYPGGSDNYGSLSRVTRIEERYRPSMEGYRAPSRQDVYGPQPQVRVGGSSVDLHRFHPEPYGLEDDQRSMGYDDLDYGMMSDYGTARRTGTPSDPRRRLRSYEDMIGEEVPPDQYYWAPLAQHERGSLASLDSLRKGMPPPSNWRQPELPEVIAMLGFRLDAVKSNAAAYLQHLCYRNDKVKTDVRKLKGIPILVGLLDHPKKEVHLGACGALKNISFGRDQDNKIAIKNCDGVPALVRLLRKARDMDLTEVITGTLWNLSSHDSIKMEIVDHALHALTDEVIIPHSGWEREPNEDCKPRHIEWESVLTNTAGCLRNVSSERSEARRKLRECDGLVDALIFIVQAEIGQKDSDSKLVENCVCLLRNLSYQVHREIPQAERYQEALPTVANSTGPHAASCFGAKKGKDEWFSRGKKPTEDPANDTVDFPKRTSPARGYELLFQPEVVRIYISLLKESKTPAILEASAGAIQNLCAGRWTYGRYIRSALRQEKALSAIAELLTSEHERVVKAASGALRNLAVDARNKELIGKHAIPNLVKNLPGGQQNSSWNFSEDTVVSILNTINEVIAENLEAAKKLRETQGIEKLVLINKSGNRSEKEVRAAALVLQTIWGYKELRKPLEKEGWKKSDFQVNLNNASRSQSSHSYDDSTLPLIDRNQKSDKKPDREEIPMSNMGSNTKSLDNNYSTLNERGDHNRTLDRSGDLGDMEPLKGAPLMQKI	binds
